Reference: patent publication US20150118229A1, “JAK1 SELECTIVE INHIBITOR AND USES THEREOF” (ABBVIE INC., priority 2013, published 2015)
Where two headings read alike, the source gives them in different places.

Tests used:
Assay type in all cases: cell-based
IL-7 signaling = experiment: Whole blood assay IL-7 pSTAT5 CD3+
IL-6 signaling = experiment: Whole blood assay IL-6 pSTAT3 CD14+
Protocol: (§1) Finally, compound potency in whole blood was measured against IL-6 signaling and against signaling by the common gamma chain cytokines IL-7 and IL-15 (Table 1A). […].

IL-15 signaling = experiment: Whole blood assay IL-15 pSTAT5 CD3+
Protocol: as §1

EPO (Erythroid CFU) = experiment: Erythroid bone marrow colony forming assay (EPO); settings: read-out: Colony Formation EPO (Erythroid CFU)

- IC50 (IL-7 signaling): 31 nM
- IC50 (IL-6 signaling; read-out: IL-6 (pSTAT3, CD14+)): 114 nM
- IC50 (IL-6 signaling; whole blood, read-out: IC50 IL-6 pSTAT3 CD14+): 114 nM
- IC50 (IL-15 signaling; read-out: IL-15 (pSTAT5, CD3+)): 22 nM
- IC50 (IL-15 signaling; whole blood, read-out: IC50 IL-15 pSTAT5 CD3+): 22 nM
- IC50 (EPO (Erythroid CFU)): 800 nM
Compound: C[C@@H]1CCN(C(=O)CC#N)C[C@@H]1N(C)c1ncnc2[nH]ccc12 [Tofacitinib, reference compound]
